According to paper PMC9569550:
These are yes or no findings as the source states them, for the method shown. In cells and extracts the contact can be indirect. Some results given as binding are weak or reduced against the parent protein; the word gives no strength.

By UniProt entry, the sequences of proteins in these tests, tags left out.
UniProt Q9NPA3: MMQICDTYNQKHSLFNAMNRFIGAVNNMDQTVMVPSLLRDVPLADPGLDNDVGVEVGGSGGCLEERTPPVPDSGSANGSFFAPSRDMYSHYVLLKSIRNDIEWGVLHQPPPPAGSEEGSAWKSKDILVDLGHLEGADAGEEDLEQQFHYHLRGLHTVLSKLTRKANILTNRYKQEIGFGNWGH
UniProt P01106: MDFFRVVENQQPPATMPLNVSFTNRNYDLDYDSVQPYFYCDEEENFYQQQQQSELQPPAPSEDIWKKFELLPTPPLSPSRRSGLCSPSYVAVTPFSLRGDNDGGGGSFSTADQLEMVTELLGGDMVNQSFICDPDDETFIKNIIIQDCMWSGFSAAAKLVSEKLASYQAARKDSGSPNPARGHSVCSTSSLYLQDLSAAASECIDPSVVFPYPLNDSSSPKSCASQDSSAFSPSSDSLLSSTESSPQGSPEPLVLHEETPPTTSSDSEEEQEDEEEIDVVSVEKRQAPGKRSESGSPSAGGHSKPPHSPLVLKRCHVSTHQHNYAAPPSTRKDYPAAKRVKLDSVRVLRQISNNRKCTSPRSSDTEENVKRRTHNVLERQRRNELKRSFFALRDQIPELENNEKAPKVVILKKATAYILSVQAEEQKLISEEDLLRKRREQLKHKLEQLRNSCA

Molecular target: midline1 interacting protein 1 (MID1IP1) (human (endogenous in HCT116)) (UniProt Q9NPA3)
Assay: co-IP; lysates of HCT116 p53+/+ cells, untreated or treated with TA3 for 24 h; incubated overnight with MID1IP1 antibody, Protein A or G beads at 4 °C for 5 h, washed three times with lysis buffer, Western blot

c-Myc (from UniProt P01106 1-454) was tested, and the binding was “binds”.
